PMC13011034
Results are given in words; binding and its absence hold for the method and conditions named. Binding seen in cells or lysates may run through a third protein. Some results given as binding are weak or reduced against the parent protein; the word gives no strength. Sequences can lack the tags named with a protein.

The chains behind the UniProt entries cited, without tags or fusion partners.
UniProt Q14258: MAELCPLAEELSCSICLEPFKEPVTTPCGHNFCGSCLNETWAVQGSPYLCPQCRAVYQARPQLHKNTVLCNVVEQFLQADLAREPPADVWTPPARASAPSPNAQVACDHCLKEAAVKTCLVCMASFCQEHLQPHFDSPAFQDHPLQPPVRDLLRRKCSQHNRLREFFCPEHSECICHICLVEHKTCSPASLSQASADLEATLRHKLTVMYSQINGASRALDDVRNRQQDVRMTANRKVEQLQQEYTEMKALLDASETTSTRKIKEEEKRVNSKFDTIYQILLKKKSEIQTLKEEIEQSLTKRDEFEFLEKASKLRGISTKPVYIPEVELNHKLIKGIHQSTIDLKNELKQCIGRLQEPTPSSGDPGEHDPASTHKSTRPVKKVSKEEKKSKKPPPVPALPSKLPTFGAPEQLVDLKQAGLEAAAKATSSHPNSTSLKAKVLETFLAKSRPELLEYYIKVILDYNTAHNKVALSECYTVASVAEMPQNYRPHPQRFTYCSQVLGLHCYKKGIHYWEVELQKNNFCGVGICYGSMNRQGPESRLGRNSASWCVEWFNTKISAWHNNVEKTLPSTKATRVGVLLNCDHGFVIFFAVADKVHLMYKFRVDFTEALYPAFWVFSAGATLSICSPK

Target: T1, Flag-RIG-I S144F variant (human) (UniProt O95786)
T1 sequence: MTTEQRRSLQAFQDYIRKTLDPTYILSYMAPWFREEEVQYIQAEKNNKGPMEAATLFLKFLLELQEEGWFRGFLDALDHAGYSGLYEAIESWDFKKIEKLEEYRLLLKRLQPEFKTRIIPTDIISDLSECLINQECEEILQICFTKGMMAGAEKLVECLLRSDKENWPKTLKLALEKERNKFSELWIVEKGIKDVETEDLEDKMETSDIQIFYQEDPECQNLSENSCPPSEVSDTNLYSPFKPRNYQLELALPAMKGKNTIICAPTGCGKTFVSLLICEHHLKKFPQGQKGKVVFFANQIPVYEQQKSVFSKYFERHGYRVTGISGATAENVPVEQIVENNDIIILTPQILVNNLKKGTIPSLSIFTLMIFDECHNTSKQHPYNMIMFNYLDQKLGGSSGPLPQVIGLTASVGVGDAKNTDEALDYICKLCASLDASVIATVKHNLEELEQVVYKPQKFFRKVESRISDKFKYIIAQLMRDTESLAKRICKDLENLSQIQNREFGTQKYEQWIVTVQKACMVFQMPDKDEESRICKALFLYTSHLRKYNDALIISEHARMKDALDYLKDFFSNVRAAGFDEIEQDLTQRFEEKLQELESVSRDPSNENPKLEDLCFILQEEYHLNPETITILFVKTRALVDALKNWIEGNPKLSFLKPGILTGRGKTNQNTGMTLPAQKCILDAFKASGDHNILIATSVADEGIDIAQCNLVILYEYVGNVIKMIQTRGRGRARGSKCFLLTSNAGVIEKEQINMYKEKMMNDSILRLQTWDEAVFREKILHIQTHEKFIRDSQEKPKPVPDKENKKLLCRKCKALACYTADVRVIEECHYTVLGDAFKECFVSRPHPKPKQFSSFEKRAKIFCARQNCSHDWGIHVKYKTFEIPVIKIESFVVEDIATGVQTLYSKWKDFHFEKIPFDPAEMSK
Test: co-IP; HEK293T cells transfected with Flag-RIG-I WT or Flag-RIG-I S144F, followed by intracellular poly(I:C) stimulation; endogenous TRIM25 and TRIM4 examined

binding: binds
Substance: TRIM25 (E3 ligase) (from UniProt Q14258 1-630)
